{"source": "PubChem BioAssay AID1224830 (NIAID, 2016)", "purpose": "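Host factors that control LPS-induced TNF expression in human macrophages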 (primary screen)", "system": "human THP-1 monocytic leukaemia cells, TNF dual-luciferase reporter clone, PMA-differentiated to macrophage-like cells", "reagents": "siRNA pool against human genes, 50 nM", "timing": "LPS for 4 h, given about 3 days after siRNA transfection", "conditions": "bacterial LPS (TLR4 ligand), 10 ng/ml", "detection": "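Ratio of firefly to renilla light, scaled to the plate median and expressed as a robust z-score per replicate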", "direction": "TNF reporter robust z-score: higher = stronger TNF reporter response to LPS", "call rule": "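Each well counts as active if its z-score is over 2.8 or under -1.5; controls are left without a call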", "note": "The whole screen tested about 18,000 reagents; below is a part drawn at random. In the full data, about 2,900 (16%) got an active call. 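Calls are made per well; low scores hint the gene aids the LPS response, high scores that it dampens it.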 Repeated entries: four replicate wells of each siRNA pool."}
{"target": "CARD14", "TNF reporter robust z-score": 1.25, "outcome": "inactive"}
{"target": "CARD14", "TNF reporter robust z-score": -0.38, "outcome": "inactive"}
{"target": "CARD14", "TNF reporter robust z-score": 1.22, "outcome": "inactive"}
{"target": "CARD14", "TNF reporter robust z-score": 1.62, "outcome": "inactive"}
{"target": "ZNF572", "TNF reporter robust z-score": -0.41, "outcome": "inactive"}
{"target": "ZNF572", "TNF reporter robust z-score": 0.93, "outcome": "inactive"}
{"target": "ZNF572", "TNF reporter robust z-score": -0.18, "outcome": "inactive"}
{"target": "ZNF572", "TNF reporter robust z-score": -0.62, "outcome": "inactive"}

Next part (2 carried over from the part before).
{"target": "ZNF572", "TNF reporter robust z-score": -0.18, "outcome": "inactive"}
{"target": "ZNF572", "TNF reporter robust z-score": -0.62, "outcome": "inactive"}
{"target": "TCEA3", "TNF reporter robust z-score": -0.91, "outcome": "inactive"}
{"target": "TCEA3", "TNF reporter robust z-score": 0.32, "outcome": "inactive"}
{"target": "TCEA3", "TNF reporter robust z-score": 0.76, "outcome": "inactive"}
{"target": "TCEA3", "TNF reporter robust z-score": 1.13, "outcome": "inactive"}
{"target": "ADGRG4", "TNF reporter robust z-score": -0.93, "outcome": "inactive"}
{"target": "ADGRG4", "TNF reporter robust z-score": -0.1, "outcome": "inactive"}
{"target": "ADGRG4", "TNF reporter robust z-score": -0.79, "outcome": "inactive"}
{"target": "ADGRG4", "TNF reporter robust z-score": -0.38, "outcome": "inactive"}
{"target": "TMEM145", "TNF reporter robust z-score": 0.36, "outcome": "inactive"}
{"target": "TMEM145", "TNF reporter robust z-score": 0.8, "outcome": "inactive"}
{"target": "TMEM145", "TNF reporter robust z-score": 0.54, "outcome": "inactive"}
{"target": "TMEM145", "TNF reporter robust z-score": 1.07, "outcome": "inactive"}
